Converted amounts (≈) assume the structure as drawn.

The values that follow come from ChEMBL document CHEMBL4382258, “Design and Optimization of Sulfone Pyrrolidine Sulfonamide Antagonists of Transient Receptor Potential Vanilloid-4 with in Vivo Activity in a Pulmonary Edema Model” (J Med Chem, 2018).

Data set [1] in a line: Lipophilicity, chromatographic hydrophobicity index of the compound in immobilized artificial membrane.
The nature of data set [2]: Kinetic aqueous solubility of the compound by chemiluminescence nitrogen detection analysis. To be noted: buffer.

The compound `N#Cc1ccc(S(=O)(=O)N2C[C@H](S(=O)(=O)c3ccc(Cl)cc3)[C@](O)(CN)C2)c(Cl)c1` had a CHI in data set [1] of 49. For the same compound, the kinetic solubility in data set [2] amounted to 280 µM (≈ 137 µg/mL).

One may read the kinetic solubility as solubility judged after dilution from a stock solution rather than from solid.
